Converted amounts (≈) assume the structure as drawn.
What was measured:
physchem [1] = settings: water
[2] = pH 7.4
physchem [3] = settings: aqueous with cosolvent or surfactant or cyclodextrin, thermodynamic from solid

Question: For `CC(=O)[C@H]1CC[C@H]2[C@@H]3CC[C@H]4C[C@H](O)CC[C@]4(C)[C@H]3C(=O)C[C@]12C` (stereo in doubt) [alfaxalone, 3α-hydroxy-5α-pregnane-11,20-dione], which solubility (physchem [1]) is on record?
Answer: < 5 µg/mL

Question: What about the solubility (physchem [1]; thermodynamic from solid) of the same compound?
Answer: 3.6 µg/mL (≈ 10.8 µM)

Question: What about the “effect of the buffer on complexation” value [2] of the same compound?
Answer: no significant effect

Question: And the “alfaxalone content per gram complex” value (43.5% w/v HPCD adjusted to pH 7, sonicated one hour, freeze-dried)?
Answer: 116.4 ± 1.1 mg per gram

Question: What about the “active drug per gram of complex” value (43.5% w/v HPCD, sonicated 24 hours, lyophilized) of the same compound?
Answer: 126 mg per gram

Question: And the solubility (physchem [3])?
Answer: 76900 µg/mL (≈ 231000 µM)
